In PubChem BioAssay AID720504 (National Center for Advancing Translational Sciences (NCATS), 2013):
The campaign covered roughly 360,000 compounds. About 10,000 (2.8%) were called active. The inconclusive results got no clear call from the source; some entries with a clear call stand among them for comparison. Calls follow the shape of the dose curve; as a rule, active = well fitted inhibition curve with a large enough effect; inconclusive = small, poorly fitted or top-dose-only effect; inactive = flat fitted curve, though single readings scatter. Where the call is inconclusive, the potency comes from a doubtful curve fit.

Chains of the proteins cited; added tags and fusions are not shown.
UniProt P53350, whole entry, looked up: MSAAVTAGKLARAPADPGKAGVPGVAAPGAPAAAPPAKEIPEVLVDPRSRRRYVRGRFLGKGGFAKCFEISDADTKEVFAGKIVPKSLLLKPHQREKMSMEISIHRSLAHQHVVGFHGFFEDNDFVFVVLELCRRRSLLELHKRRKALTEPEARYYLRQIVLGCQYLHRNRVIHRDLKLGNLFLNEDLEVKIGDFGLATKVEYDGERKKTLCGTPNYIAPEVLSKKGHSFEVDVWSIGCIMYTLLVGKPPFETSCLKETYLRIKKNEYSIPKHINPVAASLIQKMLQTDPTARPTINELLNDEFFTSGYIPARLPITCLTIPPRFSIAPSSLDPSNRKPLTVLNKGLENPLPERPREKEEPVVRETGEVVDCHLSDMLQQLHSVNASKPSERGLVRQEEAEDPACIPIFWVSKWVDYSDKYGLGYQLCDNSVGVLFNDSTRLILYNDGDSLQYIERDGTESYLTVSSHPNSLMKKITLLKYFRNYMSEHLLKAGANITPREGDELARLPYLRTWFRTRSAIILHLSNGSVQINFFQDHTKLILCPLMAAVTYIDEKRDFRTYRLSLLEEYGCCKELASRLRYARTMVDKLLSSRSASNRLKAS

biological target: Serine/threonine-protein kinase PLK1 (Homo sapiens) (UniProt P53350); assay: qHTS for Inhibitors of PLK1-PDB (polo-like kinase 1 - polo-box domain): Primary Screen; settings: Plk1 PBD binding of FITC phosphopeptide, fluorescence polarization; also: nearly all actives have a fitted effect of over 65% in size; as to max response, negative = inhibition: series mostly up to about 57 µM
% is scaled to controls: 0 for no effect and ±100 for the full control effect; potency is read from the fitted curve at half-maximal effect.

Row | Structure (SMILES) | Potency | max response, negative = inhibition
1 | Cc1nc2c(c(=O)n1CCC1=CCCCC1)c1nc3ccccc3nc1n2/N=C/c1ccco1 | inconclusive: 29.9 µM [inhibitor, partial curve] | 
2 | CCc1ccc2nc(N3C(=O)C(O)=C(C(=O)c4ccco4)C3c3cccs3)sc2c1 (stereo unspecified) | active: 16.8 µM | 
3 | Brc1ccc(CNc2cc3c(cc2Br)OCCO3)cc1 |  | inactive: -3.52%
4 | ClC1(Cl)CC1CSc1nc2ccccc2[nH]1 (stereo unspecified) |  | inactive: -7.72%
5 | COc1ccc(CCN2C(=O)CC(NNc3ccc([N+](=O)[O-])cc3)C2=O)cc1OC (stereo unspecified) | inconclusive: 23.8 µM [inhibitor, single point] | 
6 | Cc1ccc(C(=O)NN=C2CCCC2)cc1C |  | inactive: -9.54%
7 | COc1cccc(-c2sc3ccc(OC)cc3c2-c2ccc(C(N)=O)cc2)c1 |  | inactive: -12.5%
8 | CCc1ccccc1N(CC(=O)N1CCN(c2ccccc2)CC1)S(C)(=O)=O | inconclusive: 26.7 µM [inhibitor, single point] | 
9 | O=C1[C@@H](Oc2ccccc2)[C@@H](c2cnc3ccccc3c2)N1c1ccccc1 |  | inactive: 3.51%
10 | CC(C)NS(=O)(=O)c1ccc(OCC(=O)Nc2ccc(F)cc2)cc1 | active: 23.8 µM | 
11 | Cc1cc(C(=O)NCCN2CCOCC2)ccc1[N+](=O)[O-] |  | inactive: -7.3%
12 | Nc1ccccc1SCc1ccccc1 | inconclusive: 23.8 µM [inhibitor, single point] | 
13 | Cc1ccc(NC(=O)CCC(=O)N/N=C/c2cccs2)cc1 | inconclusive: 4.23 µM [inhibitor, full curve, poor fit] | 
14 | COc1ccc(S(=O)(=O)N(C)c2ccc(OCC(=O)Nc3cc(C)on3)cc2)cc1 | inconclusive: 26.7 µM [inhibitor, single point] | 
15 | Cn1nnc(NC(=S)NC(=O)c2ccccc2)n1 | inconclusive: 37.7 µM [inhibitor, single point] | 
16 | O=C(O)CCNC(=O)c1cncc(Br)c1 | inconclusive: 37.7 µM [inhibitor, single point] | 
17 | COCCCNC(=O)C[C@H]1C[C@H](C(=O)N2CCCCC2)[C@@]2(C)c3[nH]c4cc(-c5ccco5)ccc4c3CCN2C1=O | inconclusive: 21.2 µM [inhibitor, single point] | 
18 | CCC(=O)Nc1ccc(NC(=S)NC(=O)c2cc3ccccc3o2)cc1 | inconclusive: 37.7 µM [inhibitor, single point] | 
19 | CN(C)c1ccc(N=Nc2ccc(C(=O)O)cc2)cc1 | inconclusive: 29.9 µM [inhibitor, single point] | 
20 | O=C(CSc1ccc2c(c1)OCCO2)Nc1ccc(Cl)cn1 | inconclusive: 23.8 µM [inhibitor, partial curve] | 
21 | O=C1NC(=O)C(=Cc2ccccc2[N+](=O)[O-])S1 | active: 13.4 µM | 
22 | C[C@@H]1CN([C@H](C)CO)C(=O)Cc2cc(NS(=O)(=O)c3ccc(F)cc3)ccc2O[C@H]1CN(C)Cc1ccc(C(=O)O)cc1 |  | inactive: -15.4%
23 | Cc1cccc(C)c1NC(=O)C(c1ccc(-c2ccccc2)cc1)n1c(=O)c(-c2ccco2)nc2ccccc21 (stereo unspecified) | inconclusive: 18.9 µM [inhibitor, partial curve] | 
24 | N#C/C(=C/c1cccc([N+](=O)[O-])c1)C(=O)Nc1ccccc1O |  | inconclusive: -33.6% [inhibitor]

Quoted from the listing.
Value of Brc1ccc(CNc2cc3c(cc2Br)OCCO3)cc1 under max response, negative = inhibition: inactive: -3.52%
Value of Cc1ccc(NC(=O)CCC(=O)N/N=C/c2cccs2)cc1 under Potency: inconclusive: 4.23 µM [inhibitor, full curve, poor fit]
Value of CC(C)NS(=O)(=O)c1ccc(OCC(=O)Nc2ccc(F)cc2)cc1 under Potency: active: 23.8 µM

Going on with the list.

Row | Structure (SMILES) | Potency | max response, negative = inhibition
25 | CCCCCCCCCCCNC(=O)c1ccoc1C | inconclusive: 23.8 µM [inhibitor, partial curve] | 
26 | C/C(=N\Nc1cccc(Cl)c1)c1ccncc1 |  | inactive: -4.23%
27 | COC(=O)CCC(=O)OC1(C)C(=O)C2=CN(Cc3ccc(OC)cc3)C(c3ccc(OC)cc3)=CC2=C(Br)C1=O (stereo unspecified) | inconclusive: 15 µM [inhibitor, partial curve] | 
28 | CCC(CC)C(=O)Nc1nnc(-c2cccs2)s1 | active: 29.9 µM | 
29 | O=[N+]([O-])c1ccc(O)c(/C=N/Nc2nc3ccccc3[nH]2)c1 |  | inactive: -5.06%
30 | S=C(NCc1ccco1)Nc1ccc(Br)cn1 | inconclusive: 11.9 µM [inhibitor, partial curve] | 
31 | COc1cccc(C(=O)NC(=S)Nc2ccccc2N2CCCC2)c1 | inconclusive: 29.9 µM [inhibitor, single point] | 
32 | CCOC(=O)c1ccc(S(=O)(=O)N2CCN(CC3CC=CCC3)CC2)cc1 (stereo unspecified) |  | inactive: 1.39%
33 | O=C(O)c1cc(NN=C2c3ccccc3-c3ccccc32)ccc1Cl | inconclusive: 23.8 µM [inhibitor, single point] | 
34 | O=C(CCC1CCCN(C2C3CC4CC(C3)CC2C4)C1)NCc1ccc(F)c(F)c1 (stereo unspecified) |  | inactive: 4.61%
35 | O=C(O)c1cccc(NC(=O)c2ccc3c(c2)C(=O)N(Cc2ccco2)C3=O)c1 | inconclusive: 75.2 µM [inhibitor, partial curve] | 
36 | CCOc1ccc(-n2c(=S)sc3c(=O)[nH]c(SCC(=O)C(C)(C)C)nc32)cc1 | inconclusive: 37.7 µM [inhibitor, partial curve] | 
37 | O=C(Nc1nnc(C2CC2)s1)C1Cc2ccccc2CN1C(=O)c1ccco1 (stereo unspecified) | active: 26.7 µM | 
38 | CCOC(=O)c1c(N)sc2c1CCCC2 | inconclusive: 26.7 µM [inhibitor, single point] | 
39 | Cc1ccc(C2C(C#N)=C(N)Oc3n[nH]c(-c4cccs4)c32)s1 (stereo unspecified) | inconclusive: 29.9 µM [inhibitor, single point] | 
40 | O=C(Nc1ncc(S(=O)(=O)c2ccc([N+](=O)[O-])cc2)s1)c1ccc2ccccc2c1 |  | inactive: -0.0352%
41 | C=CCSc1nc2sc3c(c2c(=O)n1CC)CCc1ccccc1-3 | active: 2.99 µM | 
42 | Cc1ccc(SC(CC(=O)c2ccc(C)cc2)C(=O)O)cc1 (stereo unspecified) | inconclusive: 29.9 µM [inhibitor, partial curve] | 
43 | O=C(NCc1cccc(F)c1)C1CCC(=O)N(CC2CCCCC2)C1 (stereo unspecified) |  | inactive: -9.84%
44 | O=C(/C=C/c1cccs1)NC(=S)Nc1ccc(S(=O)(=O)Nc2ccccc2C(F)(F)F)cc1 | inconclusive: 26.7 µM [inhibitor, partial curve] | 
45 | CCN(CC)c1ccc(NC(=O)CSc2nnc3nc(C)cc(C)n23)cc1 | active: 16.8 µM | 
46 | Cc1ccccc1NC(=O)c1cc(-c2ccco2)nc2ccccc12 | inconclusive: 33.6 µM [inhibitor, partial curve] | 
47 | COc1ccc(OC)c(CNC(=O)Cn2nc(C)c3c(C)n(-c4ccc(C)cc4)nc3c2=O)c1 | active: 26.7 µM | 
48 | Cc1nnc2sc(-c3ccc(-c4ccc(Cl)c(C(F)(F)F)c4)o3)nn12 | inconclusive: 26.7 µM [inhibitor, partial curve] | 

Row | Structure (SMILES) | Potency | max response, negative = inhibition
49 | O=[N+]([O-])/C(C(Cl)=C(Cl)Cl)=C1\Nc2ccccc2O1 | inconclusive: 29.9 µM [inhibitor, partial curve] | 
50 | Cc1cc(C)c2c(c1)c1nnc(SCCN3CCOCC3)nc1n2C | inconclusive: 23.8 µM [inhibitor, single point] | 
51 | CC(=O)Nc1cccc(C(=O)N/N=C/c2cccnc2)c1 | active: 23.8 µM | 
52 | COc1ccc(-c2ccc(N(C)C)cc2)cc1[C@H]1[C@H]2C=CC[C@@H](C)[C@@H]2C(=O)N1Cc1ccccc1 |  | inactive: -0.73%
53 | COc1ccc(-n2cccc2/C=C2\C(=N)N3N=C(c4ccco4)SC3=NC2=O)cc1 | inconclusive: 9.47 µM [inhibitor, partial curve] | 
54 | Fc1ccccc1/C=C1\CCCC2=C1NC(=S)NC2c1ccccc1F (stereo unspecified) | active: 18.9 µM | 
55 | O=c1c2c([nH]n1-c1ccccc1)C[C@@H](C1CCCCC1)O[C@H]2c1ccc(F)cc1 | inconclusive: 9.47 µM [inhibitor, single point] | 
56 | NC(=S)N/N=C/c1coc2ccc(O)cc2c1=O |  | inactive: -0.0711%
57 | Clc1cccc(-c2nn3c(Cn4cnc5ccccc54)nnc3s2)c1 | active: 10.6 µM | 
58 | O=C1N=c2ccccc2=C1c1c(O)[nH]c2c(C(F)(F)F)cccc12 | active: 26.7 µM | 
59 | COc1cccc(Cn2nnc(C(=O)Nc3cc(C)ccc3OC)c2N)c1 | active: 26.7 µM | 
60 | Cc1ccc(-c2ccc(/C=N/NC(=S)Nc3ccccc3)o2)cc1[N+](=O)[O-] |  | inactive: -7.88%
61 | S=c1[nH]nc(-c2ccccn2)n1/N=C/c1ccc(Cl)c(Cl)c1 | inconclusive: 2.38 µM [inhibitor, full curve] | 
62 | CC(=O)Nc1ccc(SCC(=O)Nc2ccccc2-c2ccccc2)cc1 | inconclusive: 29.9 µM [inhibitor, partial curve] | 
63 | Nn1c(Cc2cccc3ccccc23)nnc1SCC(=O)N1CC(=O)Nc2ccccc21 | inconclusive: 42.3 µM [inhibitor, partial curve] | 
64 | O=C(NCCN1CCN(c2ccccc2)CC1)C1CCN(S(=O)(=O)c2cccc3nonc23)CC1 |  | inactive: -3.47%
65 | COc1ccc(CNC(C)C(=O)Nc2ccc3ccccc3c2)cc1OC (stereo unspecified) |  | inactive: -4.23%
66 | CCOC(=O)Nc1sc(C(=O)N(CC)CC)c(C)c1C(=O)OCC | inconclusive: 29.9 µM [inhibitor, partial curve] | 
67 | O=C(c1cc(-c2ccc(O)cc2)on1)N1CCN(c2ccccc2)CC1 | active: 33.6 µM | 
68 | Cc1cccnc1NC(=S)Nc1ccc(F)cc1F | inconclusive: 29.9 µM [inhibitor, partial curve] | 
69 | O=C(CCN1CCOCC1)c1ccc(Cl)cc1 | active: 21.2 µM | 
70 | Cc1ccc(S(=O)(=O)N2CCN(C(=O)CSCc3ccc(C(C)C)cc3)CC2)cc1 |  | inactive: -0.909%
71 | Oc1ccc(N=Cc2ccc(OCc3ccccc3)cc2)cc1 | inconclusive: 23.8 µM [inhibitor, single point] | 
